PubChem BioAssay AID1159578 | Peter MacCallum Cancer Centre, 2015

Purpose: 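Genome-wide hunt for genes controlling movement of lymphatic endothelial cells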 (primary screen)
Cells: human lymphatic endothelial cells
Reagents: siRNA pool against human genes, 40 nM
Time to read-out: 48 h after transfection
Measured: 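High-content imaging of dye-stained cells in a scratch assay measures filled wound area and nuclei per well; duplicate means given as ratio to mock and robust z-score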
Direction: migration robust z-score: higher = faster migration into the scratch; migration relative to mock: higher = more scratch area covered than mock; nuclei per well: higher = more cells in the well
Hit rule: 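Migration changed when robust z exceeds 2 or falls below -2 and mean nuclei number is at least 3300; otherwise not called changed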
Calls: active = migration changed; inactive = no migration change, or too few cells
Here is one part, drawn at random, of about 18,000 deposited reagents. Of all reagents, about 1,030 (5.7%) were called active. 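Inactive calls also include pools with fewer than 3300 nuclei, whose migration was not assessed.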 Raw values are not corrected between plates. Unmarked entries are inactive. No sequences are given here.

target gene	migration robust z-score	migration class with cell-count check	migration relative to mock	nuclei per well, duplicate mean
NEFM (neurofilament medium chain)	0.2	migration z between -2 and 2; enough cells	0.94	5880
RRAD	-7.13	under 3300 nuclei; migration not judged	-0.57	1678
CHCT1 (CHD1 helical C-terminal domain containing 1)	2.92 (active)	migration z above 2; enough cells	1.64	5675
RPUSD4 (RNA pseudouridine synthase D4)	-0.88	migration z between -2 and 2; enough cells	0.66	4994
WDR19 (WD repeat domain 19)	-0.75	under 3300 nuclei; migration not judged	0.69	3189
HDAC10 (histone deacetylase 10)	-0.83	migration z between -2 and 2; enough cells	0.65	5886
BARX2 (BARX homeobox 2)	0.75	migration z between -2 and 2; enough cells	0.95	5818
BSDC1 (BSD domain containing 1)	-1.03	migration z between -2 and 2; enough cells	0.62	5840
ALDOC (aldolase, fructose-bisphosphate C)	0.08	migration z between -2 and 2; enough cells	0.82	4486
ARV1 (ARV1 fatty acid homeostasis modulator)	-0.03	migration z between -2 and 2; enough cells	0.87	4978
ZNF660 (zinc finger protein 660)	0.12	migration z between -2 and 2; enough cells	0.92	6266
JMJD4 (jumonji domain containing 4)	0.87	migration z between -2 and 2; enough cells	1.1	6698
IL17RD (interleukin 17 receptor D)	-0.5	migration z between -2 and 2; enough cells	0.76	4726
EID2 (EP300 interacting inhibitor of differentiation 2)	0.16	migration z between -2 and 2; enough cells	0.83	5464
CHAT (choline O-acetyltransferase)	0.96	migration z between -2 and 2; enough cells	0.99	5282
STEAP4 (STEAP4 metalloreductase)	-1.1	migration z between -2 and 2; enough cells	0.6	3606
PPWD1 (peptidylprolyl isomerase domain and WD repeat containing 1)	0.24	migration z between -2 and 2; enough cells	0.85	6734
LILRA5 (leukocyte immunoglobulin like receptor A5)	-0.03	migration z between -2 and 2; enough cells	0.88	5764
CYP11B1 (cytochrome P450 family 11 subfamily B member 1)	-0.24	migration z between -2 and 2; enough cells	0.76	5244
NCR2 (natural cytotoxicity triggering receptor 2)	1.25	migration z between -2 and 2; enough cells	1.04	6228
TBXA2R (thromboxane A2 receptor)	-1.02	migration z between -2 and 2; enough cells	0.61	5614
SPDYC (speedy/RINGO cell cycle regulator family member C)	1.41	migration z between -2 and 2; enough cells	1.25	6936
SDCCAG8 (SHH signaling and ciliogenesis regulator SDCCAG8)	-3.11 (active)	migration z below -2; enough cells	0.08	5112
RFNG (RFNG O-fucosylpeptide 3-beta-N-acetylglucosaminyltransferase)	0.57	migration z between -2 and 2; enough cells	0.92	4766
CTSO (cathepsin O)	1.06	migration z between -2 and 2; enough cells	1.01	5400
TMEM132E-DT (TMEM132E divergent transcript)	-1.3	migration z between -2 and 2; enough cells	0.55	4890
IL38 (interleukin 38)	1.46	migration z between -2 and 2; enough cells	1.26	4942
CPNE3 (copine 3)	-0.26	migration z between -2 and 2; enough cells	0.76	4711
NXPE3 (neurexophilin and PC-esterase domain family member 3)	-0.5	migration z between -2 and 2; enough cells	0.76	5894
LCP1 (lymphocyte cytosolic protein 1)	-0.44	migration z between -2 and 2; enough cells	0.77	5799
GNAI3 (G protein subunit alpha i3)	-0.31	migration z between -2 and 2; enough cells	0.74	5280
MYO15A (myosin XVA)	0.99	migration z between -2 and 2; enough cells	1	5071
FAM20A (FAM20A golgi associated secretory pathway pseudokinase)	0.51	migration z between -2 and 2; enough cells	1.02	5018
NLRC3 (NLR family CARD domain containing 3)	0.19	migration z between -2 and 2; enough cells	0.94	6284
IRF1 (interferon regulatory factor 1)	0.08	migration z between -2 and 2; enough cells	0.82	6050
RET (ret proto-oncogene)	-4.25 (active)	migration z below -2; enough cells	-0.02	3304
NYAP1	-0.76	migration z between -2 and 2; enough cells	0.68	5103
ADCY10 (adenylate cyclase 10)	0.52	migration z between -2 and 2; enough cells	0.9	4762
CSRP1 (cysteine and glycine rich protein 1)	0.57	migration z between -2 and 2; enough cells	1.04	6810
FAM177B (family with sequence similarity 177 member B)	-0.01	migration z between -2 and 2; enough cells	0.88	5640
GLYAT (glycine-N-acyltransferase)	-0.08	migration z between -2 and 2; enough cells	0.79	5856
RSAD1 (radical S-adenosyl methionine domain containing 1)	-0.44	migration z between -2 and 2; enough cells	0.77	6080
THAP8 (THAP domain containing 8)	0.34	migration z between -2 and 2; enough cells	0.98	4725
CEACAM18 (CEA cell adhesion molecule 18)	0.05	migration z between -2 and 2; enough cells	0.9	7100
LENG9 (leukocyte receptor cluster member 9)	-0.56	migration z between -2 and 2; enough cells	0.74	5639
PKNOX2 (PBX/knotted 1 homeobox 2)	-0.16	migration z between -2 and 2; enough cells	0.84	5884
PSEN2 (presenilin 2)	-2.33 (active)	migration z below -2; enough cells	0.36	4600
GPSM2 (G protein signaling modulator 2)	0.53	migration z between -2 and 2; enough cells	1.02	5840
IDO1 (indoleamine 2,3-dioxygenase 1)	0.16	migration z between -2 and 2; enough cells	0.84	5394
OR5T2 (olfactory receptor family 5 subfamily T member 2)	0.92	migration z between -2 and 2; enough cells	1.12	5939
PROX2 (prospero homeobox 2)	-0.56	migration z between -2 and 2; enough cells	0.74	6506
S100A4 (S100 calcium binding protein A4)	-0.3	migration z between -2 and 2; enough cells	0.8	4845
ZGPAT (zinc finger CCCH-type and G-patch domain containing)	-1.82	migration z between -2 and 2; enough cells	0.42	6109
RBBP5	0.32	migration z between -2 and 2; enough cells	0.97	5940
ACSM6 (acyl-CoA synthetase medium chain family member 6)	1.4	migration z between -2 and 2; enough cells	1.25	5702
GDI2 (GDP dissociation inhibitor 2)	-0.03	migration z between -2 and 2; enough cells	0.8	6302
IL1RAPL2 (interleukin 1 receptor accessory protein like 2)	0.52	migration z between -2 and 2; enough cells	0.9	5994
GP5 (glycoprotein V platelet)	-0.5	migration z between -2 and 2; enough cells	0.76	5535
ZNF93 (zinc finger protein 93)	-0.14	migration z between -2 and 2; enough cells	0.85	5610
WDR33 (WD repeat domain 33)	-0.02	migration z between -2 and 2; enough cells	0.88	6214
LINC02910 (long intergenic non-protein coding RNA 2910)	0.76	migration z between -2 and 2; enough cells	1.08	5362
KCNG2	-0.78	migration z between -2 and 2; enough cells	0.66	5012
IDH1 (isocitrate dehydrogenase (NADP(+)) 1)	1.09	migration z between -2 and 2; enough cells	1.02	5380
YBX3 (Y-box binding protein 3)	0.29	migration z between -2 and 2; enough cells	0.86	4179
ATF2 (activating transcription factor 2)	-2.46 (active)	migration z below -2; enough cells	0.33	5537
PCID2 (PCI domain containing 2)	-0.02	migration z between -2 and 2; enough cells	0.88	6632
CXXC4 (CXXC finger protein 4)	-0.8	migration z between -2 and 2; enough cells	0.68	5239
ZDHHC16 (zDHHC palmitoyltransferase 16)	-1.48	migration z between -2 and 2; enough cells	0.5	4945
SIRPG (signal regulatory protein gamma)	-0.01	migration z between -2 and 2; enough cells	0.88	6209
ASF1A (anti-silencing function 1A histone chaperone)	-0.42	migration z between -2 and 2; enough cells	0.72	5738
HEY1	-0.39	migration z between -2 and 2; enough cells	0.73	4547
LTA4H (leukotriene A4 hydrolase)	0.26	migration z between -2 and 2; enough cells	0.86	6318
TC2N (tandem C2 domains, nuclear)	-1.08	migration z between -2 and 2; enough cells	0.6	4916
